The whole screen tested about 220,000 compounds, of which about 770 (0.35%) were called active. The shares of active, inactive and inconclusive entries below differ from those in the screen. Cut-off read from the data, not from the text of the source: active = binding response below about 49% or above about 150%; inconclusive = no clear call, values can overlap the other calls; inactive = in between.
biological target: Guanine nucleotide-binding protein G(o) subunit alpha (Homo sapiens) (UniProt P09471); test: RGS7-Galphao binding modulators, primary screen, biochemical, multiplexed bead flow cytometry (AID 1439); conditions: at 10 µM, actives lie on both sides;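 note: fluorescent Galphao held in activated GDP-AlF4 state binding bead-coupled RGS7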

The chains behind the UniProt entries cited, without tags or fusion partners.
UniProt P09471, whole entry, looked up: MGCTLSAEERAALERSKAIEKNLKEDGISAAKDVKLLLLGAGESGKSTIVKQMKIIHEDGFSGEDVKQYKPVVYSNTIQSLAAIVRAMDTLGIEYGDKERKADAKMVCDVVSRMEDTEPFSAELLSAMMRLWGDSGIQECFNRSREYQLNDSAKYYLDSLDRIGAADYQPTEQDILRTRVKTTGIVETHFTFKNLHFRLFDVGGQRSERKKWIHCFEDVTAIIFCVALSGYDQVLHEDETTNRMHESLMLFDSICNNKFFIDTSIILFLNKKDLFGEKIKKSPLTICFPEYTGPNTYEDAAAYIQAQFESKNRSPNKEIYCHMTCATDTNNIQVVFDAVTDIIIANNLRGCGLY

Row | SMILES | binding response (% of control)
1 | Cc1cc(-c2nnc(-c3cccc(C(F)(F)F)c3)o2)no1 | inconclusive: 309%
2 | S=C(NCCN1CCOCC1)NC1CCCCC1 | inconclusive: 28.2%
3 | O=C(COC(=O)CNC(=O)c1ccc(-c2ccccc2)cc1)NCc1ccco1 | inconclusive: 97.4%
4 | NC(=O)C(c1ccccn1)c1ncc(C(F)(F)F)cc1Cl (stereo unspecified) | inconclusive: 65.9%
5 | CCON1C(=O)C(C)(C)N(OCC)C(=O)C1(C)C | inconclusive: 102%
6 | O=C(C1CCCC1)N1CCC(CO)(Cc2ccccc2Cl)CC1 | inactive: 101%
7 | CC(=O)C1C(=O)c2c(cccc2[N+](=O)[O-])C1=Nc1cccc(Cl)c1 (stereo unspecified) | inconclusive: 226%
8 | COc1ccc(C2/C=C\CN(C(=O)c3ccc(C)cc3)CC(=O)N2Cc2ccc(F)cc2)cc1 (stereo unspecified) | inconclusive: 98.3%
9 | CCCCOc1ccc(C(=O)N/C(=C/c2cccc([N+](=O)[O-])c2)C(=O)O)cc1 | inconclusive: 104%
10 | O=C(O)c1cccc(N(CCO)CCO)c1 | inconclusive: 137%
11 | Cn1c2ccccc2n2c(=O)cc(-c3ccccc3)c(C#N)c12 | inconclusive: 266%
12 | COc1cc(C#N)c(NC(=O)CN2CCN(CCO)CC2)cc1OC | inconclusive: 106%
13 | CC1CCCC(C)N1/N=C/c1ccc(C(=O)O)cc1 (stereo unspecified) | inconclusive: 47.4%
14 | Cc1ccc(C(=O)N2CCC3(CC2)Oc2ccc(F)cc2C(=O)C32CC(c3ccc(Cl)cc3)=NO2)s1 (stereo unspecified) | inconclusive: 101%
15 | O=C(Nc1ccc(Oc2c(F)c(F)c(F)c(F)c2F)cc1)OC1CCN2Cc3ccccc3N=C12 (stereo unspecified) | inconclusive: 96.3%
16 | O=C1Nc2ccccc2N(O)N1c1ccc(S(=O)(=O)N2CCCCCC2)cc1 | inactive: 100%
17 | O=C(NNC(=O)NC1CCCCC1)NC1CCCCC1 | inconclusive: 63.2%
18 | Cc1ccc(S(=O)(=O)C(C#N)=C2N(C)c3ccccc3N2C)cc1 | inactive: 99.4%
19 | COC(=O)c1ccc(/C=C(\C#N)c2ccccn2)cc1 | inactive: 98.4%
20 | COc1ccc(Cl)cc1N1C(=O)CC(Sc2ccccc2N)C1=O (stereo unspecified) | inconclusive: 104%
21 | CCCCc1ccc(-n2c(Cc3cccs3)n[nH]c2=S)cc1 | inactive: 104%

Row | SMILES | binding response (% of control)
22 | Cc1ccc(N(Cc2cc3ccc(C)cc3[nH]c2=O)S(C)(=O)=O)c(C)c1 | inconclusive: 51.7%
23 | CC1(C)CC(=O)C(C=Nc2cc(C(=O)c3ccccc3)ccc2N)=C(O)C1 | inconclusive: 121%
24 | Cc1ccc(C(C#N)c2ccc(Cl)nn2)cc1 (stereo unspecified) | inconclusive: 99.7%
25 | CNc1n[nH]c(=S)s1 | inconclusive: 108%
26 | Cc1cc(NC(=O)CSc2nc3ccsc3c(=O)n2NC(=O)c2ccccc2)no1 | active: 25.2%
27 | O=C1c2ccccc2C(=O)c2cc(NC(=O)C3CC3)ccc21 | inactive: 97.5%
28 | COc1ccc(Nc2nc(C(=O)NCc3ccco3)cs2)cc1 | inconclusive: 107%
29 | CCOC(=O)c1sc(-c2cccc(C(F)(F)F)c2)nc1O | inconclusive: 9.74%
30 | CCc1nnc2n1N=C(c1cccc([N+](=O)[O-])c1)CS2 | inconclusive: 129%
31 | Oc1ccc(Cl)cc1C=Nc1ccc2c3c(cccc13)CC2 | inactive: 104%
32 | c1ccc(CN(Cc2ccccc2)c2ncnc3c2nnn3Cc2ccccc2)cc1 | inconclusive: 157%
33 | Cn1cccc1C1Nc2ccccc2NC2=C1C(=O)CC(C)(C)C2 (stereo unspecified) | inactive: 57.8%
34 | O=C(CCl)Nc1ccc(Sc2ccc(NC(=O)CCl)cc2)cc1 | inconclusive: 84.2%
35 | O=C(O)c1ccccc1CSc1ncccc1C(=O)O | inconclusive: 101%
36 | O/C(=C\c1ccc2ccccc2n1)c1ccc(O)cc1O | inactive: 100%
37 | COc1ccc(NC(=O)CN(C)C(=O)c2ccc(C)s2)cc1 | inactive: 103%
38 | Cc1ccnc2nc(C(=O)OCC(=O)N(CC(C)C)CC(C)C)nn12 | inconclusive: 103%
39 | O=C(O)C1CC(c2ccccc2)=Nc2ccccc2S1 (stereo unspecified) | inconclusive: 88.1%
40 | CCOc1ccc(-c2c(C#N)c(N)nc3sc(C(=O)c4ccccc4)c(N)c23)cc1 | inconclusive: 117%
41 | CC1(C)CC(=O)C(Br)=C(O)C1 | inconclusive: 98.1%
42 | CCN(CC)C(=O)c1cccc2nc3ccccc3nc12 | inconclusive: 104%

Five entries from above, in markdown.

| Row | SMILES | binding response (% of control) |
| --- | --- | --- |
| 26 | Cc1cc(NC(=O)CSc2nc3ccsc3c(=O)n2NC(=O)c2ccccc2)no1 | active: 25.2% |
| 27 | O=C1c2ccccc2C(=O)c2cc(NC(=O)C3CC3)ccc21 | inactive: 97.5% |
| 28 | COc1ccc(Nc2nc(C(=O)NCc3ccco3)cs2)cc1 | inconclusive: 107% |
| 29 | CCOC(=O)c1sc(-c2cccc(C(F)(F)F)c2)nc1O | inconclusive: 9.74% |
| 30 | CCc1nnc2n1N=C(c1cccc([N+](=O)[O-])c1)CS2 | inconclusive: 129% |

(continued)

Row | SMILES | binding response (% of control)
43 | CN1C(=O)NC(c2cccc(O)c2)C(C(=O)c2cccs2)C1(O)C(F)(F)F (stereo unspecified) | inactive: 103%
44 | CC(C)c1nc2sc3c(=O)[nH]cnc3c2c2c1CCCC2 | inconclusive: 138%
45 | O=C(NNC(=O)c1cccc(S(=O)(=O)N2CCc3ccccc32)c1)c1ccccc1 | inconclusive: 101%
46 | O=C(c1cc2ccccc2o1)N1CCN(c2ccccc2Cl)CC1 | inactive: 103%
47 | CN1CCN(CCCCOc2ccccc2-c2ccccc2)CC1 | inactive: 102%
48 | CNC(=O)Nc1cc(C(F)(F)F)cc(C(F)(F)F)c1 | inconclusive: 99.9%
49 | O=C(Nc1ccccc1C(=O)Nc1nncs1)c1ccccc1 | inconclusive: 65.4%
50 | CN1CCC(CNC(=O)Nc2csc3ccccc23)CC1 | inconclusive: 89.6%
51 | Cc1ccc(S(=O)(=O)N2CCCCC2)cc1NC(=O)CSCC(=O)O | inconclusive: 108%
52 | O=C1CCCN1CCCNC(=S)Nc1ccc(F)c(Cl)c1 | inconclusive: 85.8%
53 | OCCN(Cc1ccccc1)C(=S)Nc1ccc(Cl)cc1Cl | inactive: 106%
54 | O=[N+]([O-])c1ccc(O)c(C2=NNC(c3ccccc3F)C2)c1 (stereo unspecified) | inconclusive: 100%
55 | O=C(COC(=O)c1ccccc1Nc1ccccc1F)c1ccccc1 | inconclusive: 100%
56 | CCC(=O)Nc1ccc(C(=O)NNC(=O)c2ccc([N+](=O)[O-])cc2)cc1 | inconclusive: 96.7%
57 | Clc1ccc(OCCCCN2CCc3ccccc3C2)cc1 | inconclusive: 88.8%
58 | CCOc1cc(C(=O)N(C)c2ccccc2)cc(OCC)c1OCC | inactive: 98.9%
59 | CCOC(=O)c1[nH]c(C)c(C(=O)NCc2cccnc2)c1C | inactive: 101%
60 | CCCCc1ccc(NC(=S)NCc2ccccc2OC)cc1 | inconclusive: 95.7%
61 | COc1cc([N+](=O)[O-])ccc1-c1ccc(/C=N/NC(=O)c2ccccc2O)o1 | inconclusive: 120%

Reference: PubChem BioAssay AID1439 (NMMLSC, 2008)
